Measured values from the supplement of paper PMC10849652.
The other results are listed elsewhere or left out.

The chains behind the UniProt entries cited, without tags or fusion partners. Where a name states a change or a piece, a line headed by the entry shows the natural chain unless it says otherwise.
UniProt O43809, whole entry, looked up: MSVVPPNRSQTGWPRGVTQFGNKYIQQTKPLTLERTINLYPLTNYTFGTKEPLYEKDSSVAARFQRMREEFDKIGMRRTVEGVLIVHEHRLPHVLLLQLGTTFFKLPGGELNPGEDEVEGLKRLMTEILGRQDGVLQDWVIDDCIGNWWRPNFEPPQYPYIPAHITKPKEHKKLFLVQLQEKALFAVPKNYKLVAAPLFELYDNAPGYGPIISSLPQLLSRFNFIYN
UniProt Q02818: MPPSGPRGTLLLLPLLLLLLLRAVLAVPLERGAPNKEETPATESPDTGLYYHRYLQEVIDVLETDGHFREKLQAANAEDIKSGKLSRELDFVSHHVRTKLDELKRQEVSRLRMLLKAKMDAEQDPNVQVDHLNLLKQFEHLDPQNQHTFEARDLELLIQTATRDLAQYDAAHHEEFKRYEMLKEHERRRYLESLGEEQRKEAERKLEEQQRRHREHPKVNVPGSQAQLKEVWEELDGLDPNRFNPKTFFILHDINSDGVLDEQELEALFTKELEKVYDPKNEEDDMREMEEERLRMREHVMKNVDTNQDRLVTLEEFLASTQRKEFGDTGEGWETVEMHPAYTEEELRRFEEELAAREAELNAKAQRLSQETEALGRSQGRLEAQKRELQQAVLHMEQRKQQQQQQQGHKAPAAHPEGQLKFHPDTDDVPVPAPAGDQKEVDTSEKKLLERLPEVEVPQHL
UniProt Q9BSD7: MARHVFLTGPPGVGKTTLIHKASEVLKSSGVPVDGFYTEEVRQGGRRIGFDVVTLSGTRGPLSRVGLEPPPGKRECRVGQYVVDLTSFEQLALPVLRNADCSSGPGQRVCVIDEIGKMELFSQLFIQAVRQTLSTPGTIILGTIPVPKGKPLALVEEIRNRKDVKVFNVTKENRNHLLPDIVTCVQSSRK
UniProt P40261: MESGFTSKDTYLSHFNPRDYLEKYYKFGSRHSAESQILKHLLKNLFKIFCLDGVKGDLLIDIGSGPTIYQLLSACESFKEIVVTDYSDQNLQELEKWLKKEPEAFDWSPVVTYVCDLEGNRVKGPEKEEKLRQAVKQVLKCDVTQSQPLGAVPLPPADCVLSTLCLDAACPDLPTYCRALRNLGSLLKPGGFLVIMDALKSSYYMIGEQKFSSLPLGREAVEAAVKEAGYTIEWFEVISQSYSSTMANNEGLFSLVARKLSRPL
UniProt Q9Y266: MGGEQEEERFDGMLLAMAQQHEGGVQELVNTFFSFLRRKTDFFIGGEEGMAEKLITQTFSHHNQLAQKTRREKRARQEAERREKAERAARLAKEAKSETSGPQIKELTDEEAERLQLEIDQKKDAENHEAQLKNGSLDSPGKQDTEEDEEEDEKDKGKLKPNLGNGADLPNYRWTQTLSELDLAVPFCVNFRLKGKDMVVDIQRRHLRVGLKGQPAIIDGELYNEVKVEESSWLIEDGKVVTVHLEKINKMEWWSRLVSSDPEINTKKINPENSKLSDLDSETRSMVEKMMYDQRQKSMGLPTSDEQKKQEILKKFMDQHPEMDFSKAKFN
UniProt Q13232: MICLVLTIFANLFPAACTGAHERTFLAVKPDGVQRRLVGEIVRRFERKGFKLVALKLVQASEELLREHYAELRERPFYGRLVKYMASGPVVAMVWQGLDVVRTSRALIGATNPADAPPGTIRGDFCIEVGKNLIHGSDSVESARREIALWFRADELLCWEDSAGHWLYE
UniProt Q7Z417: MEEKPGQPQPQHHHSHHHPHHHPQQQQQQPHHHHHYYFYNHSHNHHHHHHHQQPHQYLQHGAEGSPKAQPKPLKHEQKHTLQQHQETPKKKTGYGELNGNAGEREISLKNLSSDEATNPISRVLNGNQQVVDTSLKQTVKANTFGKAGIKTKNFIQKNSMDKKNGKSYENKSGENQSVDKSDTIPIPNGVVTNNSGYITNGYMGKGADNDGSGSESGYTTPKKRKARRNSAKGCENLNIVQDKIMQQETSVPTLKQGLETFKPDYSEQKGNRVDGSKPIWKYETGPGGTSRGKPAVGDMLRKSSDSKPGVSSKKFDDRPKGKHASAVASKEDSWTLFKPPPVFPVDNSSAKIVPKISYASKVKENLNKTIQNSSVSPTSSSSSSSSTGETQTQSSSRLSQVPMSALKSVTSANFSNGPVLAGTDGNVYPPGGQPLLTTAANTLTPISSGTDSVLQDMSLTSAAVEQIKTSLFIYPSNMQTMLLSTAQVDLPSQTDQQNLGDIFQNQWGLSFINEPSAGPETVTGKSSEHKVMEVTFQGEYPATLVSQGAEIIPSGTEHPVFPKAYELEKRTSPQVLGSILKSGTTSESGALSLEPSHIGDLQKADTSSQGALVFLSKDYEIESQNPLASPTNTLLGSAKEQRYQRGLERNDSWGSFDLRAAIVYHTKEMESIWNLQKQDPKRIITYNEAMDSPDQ
UniProt Q8WV22: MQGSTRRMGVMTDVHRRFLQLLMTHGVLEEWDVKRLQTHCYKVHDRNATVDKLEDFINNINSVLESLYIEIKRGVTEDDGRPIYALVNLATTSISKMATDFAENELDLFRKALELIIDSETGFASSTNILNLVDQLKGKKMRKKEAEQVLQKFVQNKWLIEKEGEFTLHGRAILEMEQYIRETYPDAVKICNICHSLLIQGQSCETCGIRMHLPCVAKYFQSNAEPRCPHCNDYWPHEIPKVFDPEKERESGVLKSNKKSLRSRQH

Tests used:
Test in all cases: log2 fold change, soluble protein after heating vs DMSO (PISA); higher = thermal stabilisation; K562 lysate, 10 uM; active = over 0.2 and 3.5 SD of the protein, either way, in both replicates (recomputed)
lapatinib = compound: CS(=O)(=O)CCNCc1ccc(-c2ccc3ncnc(Nc4ccc(OCc5cccc(F)c5)c(Cl)c4)c3c2)o1 [lapatinib]
Method in brief: (§1)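 The values are log-two fold changes in thermal stability compared with solvent controls and come from duplicates. They were obtained by TMTpro 16plex LC-MS/MS, with channel sums equalised, on the supernatant after 21,000xg for 90 min. That supernatant came from crude K562 extract at 1 mg/mL protein treated with 10 μM compound for 30 min, heated for 3 min across 48°C-58°C, pooled and brought to 0.5% NP-40 at 4°C.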

pictilisib = compound: CS(=O)(=O)N1CCN(Cc2cc3nc(-c4cccc5[nH]ncc45)nc(N4CCOCC4)c3s2)CC1 [pictilisib]
Method in brief: as §1

crizotinib = compound: C[C@@H](Oc1cc(-c2cnn(C3CCNCC3)c2)cnc1N)c1c(Cl)ccc(F)c1Cl [crizotinib]
Method in brief: as §1

[1] = compound: C[C@H](C1=CC=C(C=C1)C(=O)NC2=C3C=CNC3=NC=C2)N
Method in brief: as §1

duvelisib = compound: C[C@H](Nc1ncnc2nc[nH]c12)c1cc2cccc(Cl)c2c(=O)n1-c1ccccc1 [duvelisib]
Method in brief: as §1

gandotinib = compound: Cc1cc(Nc2cc(CN3CCOCC3)c3nc(C)c(Cc4ccc(Cl)cc4F)n3n2)n[nH]1 [gandotinib]
Method in brief: as §1

tozasertib = compound: Cc1cc(Nc2cc(N3CCN(C)CC3)nc(Sc3ccc(NC(=O)C4CC4)cc3)n2)n[nH]1 [tozasertib]
Method in brief: as §1

doramapimod = compound: Cc1ccc(-n2nc(C(C)(C)C)cc2NC(=O)Nc2ccc(OCCN3CCOCC3)c3ccccc23)cc1 [doramapimod]
Method in brief: as §1

bafetinib = compound: Cc1ccc(NC(=O)c2ccc(CN3CC[C@H](N(C)C)C3)c(C(F)(F)F)c2)cc1Nc1nccc(-c2cncnc2)n1 [bafetinib]
Method in brief: as §1

[2] = compound: Cc1cccc(CC(=O)N2CCc3c2ccc(-c2cn(C)c4ncnc(N)c24)c3F)n1
Method in brief: as §1

nilotinib = compound: Cc1cn(-c2cc(NC(=O)c3ccc(C)c(Nc4nccc(-c5cccnc5)n4)c3)cc(C(F)(F)F)c2)cn1 [nilotinib]
Method in brief: as §1

[3] = compound: Cc1nc(Nc2n[nH]c3c2CN(C(=O)N[C@H](CN(C)C)c2ccccc2)C3(C)C)c2sccc2n1
Method in brief: as §1

dasatinib = compound: Cc1nc(Nc2ncc(C(=O)Nc3c(C)cccc3Cl)s2)cc(N2CCN(CCO)CC2)n1 [dasatinib]
Method in brief: as §1

[4] = compound: Cc1ncc(-c2ccnc(Nc3ccc(S(C)(=O)=O)cc3)n2)n1C(C)C
Method in brief: as §1

[5] = compound: Cn1cc(-c2ccc3c(c2)CCN3C(=O)Cc2cccc(C(F)(F)F)c2)c2c(N)ncnc21
Method in brief: as §1

quisinostat = compound: Cn1cc(CNCC2CCN(c3ncc(C(=O)NO)cn3)CC2)c2ccccc21 [quisinostat]
Method in brief: as §1

tipifarnib = compound: Cn1cncc1[C@@](N)(c1ccc(Cl)cc1)c1ccc2c(c1)c(-c1cccc(Cl)c1)cc(=O)n2C [tipifarnib]
Method in brief: as §1

[6] = compound: NC(=O)Nc1cc(-c2cccc(F)c2)sc1C(=O)N[C@H]1CCCNC1
Method in brief: as §1

[7] = compound: NC(=O)c1cnc(N[C@@H]2CCCC[C@@H]2N)nc1Nc1cccc(-n2nccn2)c1
Method in brief: as §1

[8] = compound: NC1(c2ccc(-c3nc4ccn5c(=O)[nH]nc5c4cc3-c3ccccc3)cc2)CCC1
Method in brief: as §1

Measured: log2 fold change

NUDT21 (UniProt O43809)
inactive: lapatinib -0.034 | pictilisib -0.001 | crizotinib 0.038 | [1] -0.012 | duvelisib 0.006 | gandotinib -0.054 | tozasertib 0.011 | doramapimod 0.009 | bafetinib 0.006 | [2] 0.014 | nilotinib 0 | [3] -0.043 | dasatinib -0.012 | [4] -0.003 | [5] -0.026 | quisinostat 0.043 | tipifarnib 0.038 | [6] -0.015 | [7] 0.013 | [8] 0.002

NUCB1 (UniProt Q02818)
inactive: lapatinib 0.006 | pictilisib -0.06 | crizotinib 0.008 | [1] -0.017 | duvelisib 0.004 | gandotinib 0.048 | tozasertib 0.006 | doramapimod -0.001 | bafetinib -0.011 | [2] -0.003 | nilotinib 0.024 | [3] 0.003 | dasatinib 0.019 | [4] 0.004 | [5] 0.007 | quisinostat -0.025 | tipifarnib 0.007 | [6] -0.004 | [7] -0.02 | [8] 0.022

NTPCR (UniProt Q9BSD7)
inactive: lapatinib -0.003 | pictilisib -0.028 | crizotinib -0.071 | [1] 0.031 | duvelisib -0.003 | gandotinib -0.094 | tozasertib -0.028 | doramapimod 0.011 | bafetinib -0.044 | [2] -0.052 | nilotinib 0.019 | [3] -0.01 | dasatinib -0.061 | [4] 0.056 | [5] 0.032 | quisinostat -0.088 | tipifarnib 0.003 | [6] 0.028 | [7] 0.017 | [8] -0.027

Copied from the listing (2 entries):
NUCB1 (UniProt Q02818)
inactive: lapatinib 0.006 | pictilisib -0.06 | crizotinib 0.008 | [1] -0.017 | duvelisib 0.004 | gandotinib 0.048 | tozasertib 0.006 | doramapimod -0.001 | bafetinib -0.011 | [2] -0.003 | nilotinib 0.024 | [3] 0.003 | dasatinib 0.019 | [4] 0.004 | [5] 0.007 | quisinostat -0.025 | tipifarnib 0.007 | [6] -0.004 | [7] -0.02 | [8] 0.022

NTPCR (UniProt Q9BSD7)
inactive: lapatinib -0.003 | pictilisib -0.028 | crizotinib -0.071 | [1] 0.031 | duvelisib -0.003 | gandotinib -0.094 | tozasertib -0.028 | doramapimod 0.011 | bafetinib -0.044 | [2] -0.052 | nilotinib 0.019 | [3] -0.01 | dasatinib -0.061 | [4] 0.056 | [5] 0.032 | quisinostat -0.088 | tipifarnib 0.003 | [6] 0.028 | [7] 0.017 | [8] -0.027

Further records:

NNMT (UniProt P40261)
inactive: lapatinib -0.017 | pictilisib 0.037 | crizotinib -0.065 | [1] -0.072 | duvelisib 0.066 | gandotinib 0.015 | tozasertib 0 | doramapimod 0.013 | bafetinib -0.066 | [2] -0.001 | nilotinib -0.044 | [3] -0.01 | dasatinib 0.058 | [4] 0.03 | [5] 0.003 | quisinostat -0.145 | tipifarnib -0.008 | [6] 0.004 | [7] 0.035 | [8] -0.033

NUDC (UniProt Q9Y266)
inactive: lapatinib -0.01 | pictilisib 0.023 | crizotinib 0.051 | [1] 0.047 | duvelisib 0.021 | gandotinib -0.027 | tozasertib 0.01 | doramapimod -0.016 | bafetinib -0.007 | [2] -0.061 | nilotinib -0.012 | [3] 0.008 | dasatinib 0.011 | [4] 0.005 | [5] 0.008 | quisinostat 0.072 | tipifarnib 0.041 | [6] -0.018 | [7] -0.008 | [8] 0.002

NME3 (UniProt Q13232)
inactive: lapatinib 0.007 | pictilisib -0.047 | crizotinib -0.036 | [1] -0.074 | duvelisib -0.022 | gandotinib -0.049 | tozasertib -0.054 | doramapimod 0.006 | bafetinib 0.048 | [2] 0.098 | nilotinib 0.078 | [3] 0.006 | dasatinib 0.108 | [4] -0.01 | [5] 0.051 | quisinostat 0 | tipifarnib -0.008 | [6] 0.009 | [7] -0.006 | [8] -0.038

NUFIP2 (UniProt Q7Z417)
inactive: lapatinib 0.015 | pictilisib -0.025 | crizotinib 0.01 | [1] -0.01 | duvelisib -0.049 | gandotinib 0.022 | tozasertib -0.042 | doramapimod -0.021 | bafetinib 0.064 | [2] -0.03 | nilotinib -0.015 | [3] 0 | dasatinib 0.001 | [4] -0.001 | [5] -0.033 | quisinostat -0.029 | tipifarnib -0.018 | [6] 0.018 | [7] -0.004 | [8] -0.001

NSMCE1 (UniProt Q8WV22)
inactive: lapatinib -0.047 | pictilisib -0.03 | crizotinib -0.02 | [1] -0.019 | duvelisib 0.029 | gandotinib -0.052 | tozasertib 0.034 | doramapimod 0.024 | bafetinib -0.044 | [2] 0.002 | nilotinib 0.018 | [3] -0.001 | dasatinib 0.013 | [4] -0.028 | [5] 0.001 | quisinostat -0.024 | tipifarnib -0.042 | [6] 0.008 | [7] 0.006 | [8] 0.03
